Data reported in patent publication US20090123940A1, “MOLECULES INVOLVED IN SYNAPTOGENESIS AND USES THEREFOR” (THE JOHNS HOPKINS UNIVERSITY, priority 2007, published 2009).
No constants are given. Whether binding was seen depends on the method and setting. Binding seen in cells or lysates may run through a third protein. Some entries that bind do so weakly or less than the wild type. Sequences can lack the tags named with a protein.

Biological target: T1, C-terminal myc-tagged version of Narp (myc-Narp) (Rattus norvegicus (Rat)) (UniProt P97738)
T1 sequence: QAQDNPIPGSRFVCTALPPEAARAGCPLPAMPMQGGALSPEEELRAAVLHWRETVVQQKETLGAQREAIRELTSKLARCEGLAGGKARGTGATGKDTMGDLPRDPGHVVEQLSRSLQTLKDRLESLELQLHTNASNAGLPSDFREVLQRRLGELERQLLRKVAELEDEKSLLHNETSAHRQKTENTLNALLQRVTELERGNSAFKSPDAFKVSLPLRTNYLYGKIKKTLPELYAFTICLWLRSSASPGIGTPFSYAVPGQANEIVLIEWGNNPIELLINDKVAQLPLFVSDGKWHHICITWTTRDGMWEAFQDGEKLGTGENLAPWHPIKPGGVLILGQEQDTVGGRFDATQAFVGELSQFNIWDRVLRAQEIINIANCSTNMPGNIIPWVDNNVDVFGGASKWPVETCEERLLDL
Assay: competition in the GST pull-down; competitor of GST-G1-NarI

binding: binds
Binder: LRRQRIDISRRG [synthetic G1-12mer peptide]
